Data taken from PMC3805512.
Results are given in words; binding and its absence hold for the method and conditions named. Binding seen in cells or lysates may run through a third protein. Here binding means that the protein was enriched with, or labelled near, the bait; the list need not be complete. For some assays here: A no says only that the protein was not detected with the bait.

How the values were obtained:
[1] = molecular target: GST-rM180 (glutathione S-transferase fusion of recombinant mouse amelogenin M180) (mouse); assay: affinity purification with mass spectrometry; GST-rM180 or GST (50 µg) on glutathione-Sepharose 4B beads, incubated with 10 mg of the soluble (cytosolic) protein extract of SaOS-2 cells (pre-cleared with glutathione resin) for 1 h at 4°C; washed (50 mM Tris-HCl pH 7.5, 150 mM NaCl, 10% glycerol, 0.2% Triton X-100); eluate on 2D-PAGE, Coomassie spots identified by MALDI-TOF MS; only the target purified
[2] = molecular target: glutathione S-transferase (GST); assay: as above

B1: myosin regulatory light chain 12A (protein, UniProt P19105 1-171)
chain: MSSKRTKTKTKKRPQRATSNVFAMFDQSQIQEFKEAFNMIDQNRDGFIDKEDLHDMLASLGKNPTDEYLDAMMNEAPGPINFTMFLTMFGEKLNGTDPEDVIRNAFACFDEEATGTIQEDYLRELLTTMGDRFTDEEVDELYREAPIDKKGNFNYIEFTRILKHGAKDKDD
In the case of B1, the binding [1] is reported as “binds” and the binding [2] is reported as “no binding”.
